Results taken from the supplement of paper PMC10849652.
Some of the results follow.

The chains behind the UniProt entries cited, without tags or fusion partners. Where a name states a change or a piece, a line headed by the entry shows the natural chain unless it says otherwise.
UniProt P41229: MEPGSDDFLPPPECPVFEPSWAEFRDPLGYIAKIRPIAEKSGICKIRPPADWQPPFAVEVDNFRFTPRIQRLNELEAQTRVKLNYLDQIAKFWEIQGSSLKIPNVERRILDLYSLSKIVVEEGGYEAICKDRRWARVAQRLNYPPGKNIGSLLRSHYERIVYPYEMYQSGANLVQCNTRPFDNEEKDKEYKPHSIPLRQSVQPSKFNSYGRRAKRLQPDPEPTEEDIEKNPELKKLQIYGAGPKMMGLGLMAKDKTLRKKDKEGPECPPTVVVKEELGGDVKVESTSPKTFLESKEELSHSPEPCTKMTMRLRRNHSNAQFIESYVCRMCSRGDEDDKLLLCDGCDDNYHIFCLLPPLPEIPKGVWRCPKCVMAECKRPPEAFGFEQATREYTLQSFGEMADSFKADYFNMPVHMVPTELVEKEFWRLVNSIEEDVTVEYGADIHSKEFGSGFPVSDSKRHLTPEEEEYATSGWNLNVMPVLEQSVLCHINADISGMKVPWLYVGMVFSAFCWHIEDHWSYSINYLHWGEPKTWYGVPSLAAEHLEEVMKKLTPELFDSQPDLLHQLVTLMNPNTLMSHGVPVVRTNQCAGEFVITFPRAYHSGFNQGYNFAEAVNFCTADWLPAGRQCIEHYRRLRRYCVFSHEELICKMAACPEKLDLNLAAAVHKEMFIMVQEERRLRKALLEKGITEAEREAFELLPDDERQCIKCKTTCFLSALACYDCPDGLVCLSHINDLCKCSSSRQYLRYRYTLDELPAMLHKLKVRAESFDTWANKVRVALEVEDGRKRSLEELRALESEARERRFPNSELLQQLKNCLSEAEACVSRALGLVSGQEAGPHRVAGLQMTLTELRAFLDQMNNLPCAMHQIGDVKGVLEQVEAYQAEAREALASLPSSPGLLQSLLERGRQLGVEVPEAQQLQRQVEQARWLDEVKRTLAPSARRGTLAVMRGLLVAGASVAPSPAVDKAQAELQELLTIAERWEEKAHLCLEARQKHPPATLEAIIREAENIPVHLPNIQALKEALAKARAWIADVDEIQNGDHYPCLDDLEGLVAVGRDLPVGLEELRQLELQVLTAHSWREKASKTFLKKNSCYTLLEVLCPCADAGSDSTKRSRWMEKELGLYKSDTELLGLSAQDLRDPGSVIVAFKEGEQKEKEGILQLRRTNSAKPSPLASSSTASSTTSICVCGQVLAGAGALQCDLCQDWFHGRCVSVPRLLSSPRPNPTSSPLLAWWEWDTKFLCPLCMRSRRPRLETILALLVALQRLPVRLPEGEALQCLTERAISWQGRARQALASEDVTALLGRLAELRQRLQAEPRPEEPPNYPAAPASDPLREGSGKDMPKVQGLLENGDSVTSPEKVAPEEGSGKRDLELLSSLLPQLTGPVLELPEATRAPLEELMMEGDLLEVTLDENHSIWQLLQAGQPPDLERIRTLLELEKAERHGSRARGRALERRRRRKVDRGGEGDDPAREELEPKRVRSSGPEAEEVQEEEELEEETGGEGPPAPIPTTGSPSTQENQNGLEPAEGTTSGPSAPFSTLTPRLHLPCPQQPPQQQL
UniProt P24390: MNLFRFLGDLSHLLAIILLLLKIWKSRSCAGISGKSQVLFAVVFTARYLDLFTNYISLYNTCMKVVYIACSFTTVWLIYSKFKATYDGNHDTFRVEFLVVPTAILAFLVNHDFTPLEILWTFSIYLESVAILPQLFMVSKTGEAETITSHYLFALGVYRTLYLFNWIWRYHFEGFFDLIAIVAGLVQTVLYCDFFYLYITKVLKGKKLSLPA
UniProt Q9NS87: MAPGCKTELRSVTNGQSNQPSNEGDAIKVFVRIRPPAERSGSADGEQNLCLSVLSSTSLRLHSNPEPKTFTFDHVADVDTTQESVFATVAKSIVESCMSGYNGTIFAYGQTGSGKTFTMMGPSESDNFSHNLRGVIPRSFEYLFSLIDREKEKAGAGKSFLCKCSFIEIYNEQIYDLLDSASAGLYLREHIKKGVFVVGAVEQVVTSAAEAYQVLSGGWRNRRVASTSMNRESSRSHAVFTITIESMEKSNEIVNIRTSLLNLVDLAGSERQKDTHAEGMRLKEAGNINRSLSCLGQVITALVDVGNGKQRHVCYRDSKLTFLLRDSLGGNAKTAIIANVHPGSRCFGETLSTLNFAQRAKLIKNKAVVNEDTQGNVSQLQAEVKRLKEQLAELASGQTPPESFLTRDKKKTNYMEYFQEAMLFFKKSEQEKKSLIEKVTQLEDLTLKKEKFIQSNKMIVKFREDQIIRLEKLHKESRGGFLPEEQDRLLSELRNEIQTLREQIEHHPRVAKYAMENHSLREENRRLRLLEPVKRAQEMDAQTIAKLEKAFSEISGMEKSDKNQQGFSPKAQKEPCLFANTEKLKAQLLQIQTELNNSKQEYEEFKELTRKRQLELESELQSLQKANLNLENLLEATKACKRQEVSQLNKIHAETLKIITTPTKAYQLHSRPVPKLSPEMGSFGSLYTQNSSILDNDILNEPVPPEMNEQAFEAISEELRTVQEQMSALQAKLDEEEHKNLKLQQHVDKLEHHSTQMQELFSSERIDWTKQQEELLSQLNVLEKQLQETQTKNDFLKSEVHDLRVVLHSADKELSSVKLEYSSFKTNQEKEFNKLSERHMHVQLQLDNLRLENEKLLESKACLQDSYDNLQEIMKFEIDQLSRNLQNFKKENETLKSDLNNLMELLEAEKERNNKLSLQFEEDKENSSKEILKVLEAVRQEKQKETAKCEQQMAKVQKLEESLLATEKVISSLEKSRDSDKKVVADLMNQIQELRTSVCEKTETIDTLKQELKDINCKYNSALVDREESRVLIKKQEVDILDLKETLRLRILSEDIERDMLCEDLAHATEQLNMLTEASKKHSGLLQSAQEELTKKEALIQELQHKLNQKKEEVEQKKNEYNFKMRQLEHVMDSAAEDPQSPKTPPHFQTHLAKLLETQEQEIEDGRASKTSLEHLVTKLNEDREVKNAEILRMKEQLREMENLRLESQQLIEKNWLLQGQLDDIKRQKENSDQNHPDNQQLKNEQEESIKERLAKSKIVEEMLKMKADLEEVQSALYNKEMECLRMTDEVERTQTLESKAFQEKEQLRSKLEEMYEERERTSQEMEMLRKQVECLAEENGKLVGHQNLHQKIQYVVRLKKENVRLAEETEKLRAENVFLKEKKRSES
UniProt Q8N371: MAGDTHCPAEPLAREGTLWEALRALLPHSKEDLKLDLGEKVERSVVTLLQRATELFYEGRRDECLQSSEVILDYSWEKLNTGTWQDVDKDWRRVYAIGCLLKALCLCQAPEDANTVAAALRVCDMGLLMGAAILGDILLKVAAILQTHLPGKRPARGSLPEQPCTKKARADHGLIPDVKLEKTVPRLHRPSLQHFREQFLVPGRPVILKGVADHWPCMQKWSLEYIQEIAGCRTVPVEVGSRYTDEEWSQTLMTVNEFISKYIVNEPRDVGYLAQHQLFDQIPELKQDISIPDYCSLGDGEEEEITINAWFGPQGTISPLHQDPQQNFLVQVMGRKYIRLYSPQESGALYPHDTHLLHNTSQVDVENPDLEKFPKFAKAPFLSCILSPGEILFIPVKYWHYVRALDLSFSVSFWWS
UniProt Q9Y597: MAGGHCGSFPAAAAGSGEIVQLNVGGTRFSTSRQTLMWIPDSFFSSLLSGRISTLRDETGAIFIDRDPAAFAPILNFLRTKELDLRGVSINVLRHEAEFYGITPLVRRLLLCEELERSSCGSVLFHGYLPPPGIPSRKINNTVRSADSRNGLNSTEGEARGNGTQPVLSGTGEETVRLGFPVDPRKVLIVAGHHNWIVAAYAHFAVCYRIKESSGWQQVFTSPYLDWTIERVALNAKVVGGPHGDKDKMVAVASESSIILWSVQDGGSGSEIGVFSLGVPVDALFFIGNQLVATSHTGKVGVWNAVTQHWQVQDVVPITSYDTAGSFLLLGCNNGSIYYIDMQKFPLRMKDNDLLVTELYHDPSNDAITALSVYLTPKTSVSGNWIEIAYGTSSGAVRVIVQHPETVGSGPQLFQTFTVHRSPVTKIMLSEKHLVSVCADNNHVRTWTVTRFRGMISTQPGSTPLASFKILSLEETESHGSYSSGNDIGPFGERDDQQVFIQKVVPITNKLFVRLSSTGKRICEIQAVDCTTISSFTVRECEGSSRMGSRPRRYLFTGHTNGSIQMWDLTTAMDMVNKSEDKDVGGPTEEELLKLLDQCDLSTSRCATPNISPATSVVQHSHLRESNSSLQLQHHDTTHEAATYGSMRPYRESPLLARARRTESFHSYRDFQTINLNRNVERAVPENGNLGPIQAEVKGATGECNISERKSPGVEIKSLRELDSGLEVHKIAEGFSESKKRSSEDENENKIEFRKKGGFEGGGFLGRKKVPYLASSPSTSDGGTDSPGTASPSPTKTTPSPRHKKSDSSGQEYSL
UniProt Q9BQ90: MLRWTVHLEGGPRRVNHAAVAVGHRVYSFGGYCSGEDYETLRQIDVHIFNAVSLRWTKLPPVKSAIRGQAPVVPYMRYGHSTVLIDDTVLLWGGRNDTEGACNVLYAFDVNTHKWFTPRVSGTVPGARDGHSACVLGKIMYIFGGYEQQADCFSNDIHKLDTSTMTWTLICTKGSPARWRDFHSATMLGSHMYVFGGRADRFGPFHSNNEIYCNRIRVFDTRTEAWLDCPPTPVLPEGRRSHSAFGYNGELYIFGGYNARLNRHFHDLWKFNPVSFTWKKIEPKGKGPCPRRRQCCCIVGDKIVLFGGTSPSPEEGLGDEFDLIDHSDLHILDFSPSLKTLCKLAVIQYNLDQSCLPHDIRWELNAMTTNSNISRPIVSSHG
UniProt P33176: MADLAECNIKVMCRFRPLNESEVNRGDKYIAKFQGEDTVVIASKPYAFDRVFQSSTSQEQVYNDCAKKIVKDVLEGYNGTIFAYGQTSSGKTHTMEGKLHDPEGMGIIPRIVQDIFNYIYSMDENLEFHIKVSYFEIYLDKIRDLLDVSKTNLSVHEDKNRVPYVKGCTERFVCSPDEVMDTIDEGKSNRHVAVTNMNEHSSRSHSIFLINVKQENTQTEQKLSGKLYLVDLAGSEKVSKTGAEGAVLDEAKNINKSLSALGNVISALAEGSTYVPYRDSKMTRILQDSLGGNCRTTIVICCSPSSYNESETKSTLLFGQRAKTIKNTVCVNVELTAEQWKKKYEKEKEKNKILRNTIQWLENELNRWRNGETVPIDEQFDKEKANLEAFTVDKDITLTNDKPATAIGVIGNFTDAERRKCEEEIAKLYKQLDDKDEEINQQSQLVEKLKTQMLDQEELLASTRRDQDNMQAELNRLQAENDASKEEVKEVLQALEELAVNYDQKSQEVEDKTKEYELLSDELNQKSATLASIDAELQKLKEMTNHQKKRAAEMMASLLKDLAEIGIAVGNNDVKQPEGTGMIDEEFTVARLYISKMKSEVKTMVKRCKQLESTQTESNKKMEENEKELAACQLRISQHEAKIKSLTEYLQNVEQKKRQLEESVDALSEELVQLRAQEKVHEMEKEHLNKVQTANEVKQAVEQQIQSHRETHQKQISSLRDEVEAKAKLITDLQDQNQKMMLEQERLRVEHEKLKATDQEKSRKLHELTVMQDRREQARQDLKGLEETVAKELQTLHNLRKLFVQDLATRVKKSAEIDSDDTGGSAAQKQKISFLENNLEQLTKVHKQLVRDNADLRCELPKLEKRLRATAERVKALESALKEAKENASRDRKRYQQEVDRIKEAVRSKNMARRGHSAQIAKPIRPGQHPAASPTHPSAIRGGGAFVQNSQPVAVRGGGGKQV
UniProt Q13601: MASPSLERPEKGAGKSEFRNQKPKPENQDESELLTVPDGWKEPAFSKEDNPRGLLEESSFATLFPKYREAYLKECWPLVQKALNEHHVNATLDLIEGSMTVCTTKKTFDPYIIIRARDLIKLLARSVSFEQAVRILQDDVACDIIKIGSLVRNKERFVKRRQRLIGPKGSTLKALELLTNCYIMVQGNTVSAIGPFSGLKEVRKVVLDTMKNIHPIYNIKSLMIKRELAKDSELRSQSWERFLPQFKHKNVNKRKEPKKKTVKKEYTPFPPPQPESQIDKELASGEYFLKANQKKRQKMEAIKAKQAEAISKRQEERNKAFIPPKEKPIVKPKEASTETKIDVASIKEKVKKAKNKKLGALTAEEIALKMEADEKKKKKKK
UniProt Q8N6L1: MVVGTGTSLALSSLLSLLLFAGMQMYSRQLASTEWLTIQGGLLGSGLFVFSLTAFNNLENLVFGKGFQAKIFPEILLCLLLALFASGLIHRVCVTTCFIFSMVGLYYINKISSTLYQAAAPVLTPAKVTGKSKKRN
UniProt Q96A73: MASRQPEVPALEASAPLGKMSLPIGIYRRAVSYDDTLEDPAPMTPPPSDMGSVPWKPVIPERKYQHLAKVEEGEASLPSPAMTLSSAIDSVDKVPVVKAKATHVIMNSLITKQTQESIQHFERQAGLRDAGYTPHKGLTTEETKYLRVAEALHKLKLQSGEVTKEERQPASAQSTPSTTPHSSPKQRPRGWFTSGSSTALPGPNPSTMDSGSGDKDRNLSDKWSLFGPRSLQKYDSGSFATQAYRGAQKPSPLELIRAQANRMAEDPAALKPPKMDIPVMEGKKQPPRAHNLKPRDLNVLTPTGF

compound: c1cn2cc(-c3ccc4cn[nH]c4c3)nc(Nc3ccc(N4CCOCC4)cc3)c2n1 [entospletinib]; test: log2 fold change, soluble protein after heating vs DMSO (PISA); higher = thermal stabilisation; K562 cells, 10 uM, 30 min; active = over 0.2 and 3.5 SD of the protein, either way, in both replicates (recomputed)
Summary of the method: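 K562 cells at 2×10^6 cells/mL were exposed to 10 μM compound for 30 min, then aliquots were heated for 3 min across 48°C-58°C, pooled, and extracted in PBS containing 0.5% NP-40 at 4°C. The supernatant after 21,000xg for 90 min was taken as soluble protein and measured by TMTpro 16plex LC-MS/MS with channel sums equalised. Thermal stability is reported relative to control samples, with values from duplicates. Fold changes are given on a log2 scale.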

log2 fold change, inactive:
KDM5C (UniProt P41229) -0.093, JAGN1 (UniProt Q8N5M9) 0.028, KDELR1 (UniProt P24390) 0.072, KIF15 (UniProt Q9NS87) 0.262, KIFAP3 (UniProt Q92845) -0.161, KPNA3 (UniProt O00505) -0.052, KDM8 isoform 3 (UniProt Q8N371) -0.005, KCTD3 (UniProt Q9Y597) 0.03, KLHDC3 (UniProt Q9BQ90) -0.063, KCNAB2 (UniProt Q13303) -0.015, KIF5B (UniProt P33176) -0.018, KDSR (UniProt Q06136) -0.006, KAT7 (UniProt O95251) -0.013, JUNB (UniProt P17275) 0.112, KIF26A (UniProt Q9ULI4) 0.07, KRR1 (UniProt Q13601) 0.105, KALRN (UniProt O60229) -0.139, KATNB1 (UniProt Q9BVA0) -0.117, KCTD15 (UniProt Q96SI1) -0.027, KRTCAP2 isoform 2 (UniProt Q8N6L1) -0.011, KCMF1 (UniProt Q9P0J7) 0.057, KNOP1 (UniProt Q1ED39) -0.078, KATNA1 (UniProt O75449) 0.066, KIDINS220 (UniProt Q9ULH0) 0.013, KIF5A (UniProt Q12840) 0.027, KBTBD2 (UniProt Q8IY47) -0.067, KIAA1191 (UniProt Q96A73) 0.025
